# In the supplement of paper PMC10849652:
# By UniProt entry, the sequences of proteins in these tests, tags left out. Where a name states a change or a piece, a line headed by the entry shows the natural chain unless it says otherwise.
# UniProt Q13526, whole entry, looked up: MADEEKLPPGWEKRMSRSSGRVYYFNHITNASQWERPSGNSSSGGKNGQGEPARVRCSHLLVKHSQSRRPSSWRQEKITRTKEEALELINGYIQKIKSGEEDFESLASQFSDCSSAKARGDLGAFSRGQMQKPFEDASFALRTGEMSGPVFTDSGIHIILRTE
# UniProt Q96S52: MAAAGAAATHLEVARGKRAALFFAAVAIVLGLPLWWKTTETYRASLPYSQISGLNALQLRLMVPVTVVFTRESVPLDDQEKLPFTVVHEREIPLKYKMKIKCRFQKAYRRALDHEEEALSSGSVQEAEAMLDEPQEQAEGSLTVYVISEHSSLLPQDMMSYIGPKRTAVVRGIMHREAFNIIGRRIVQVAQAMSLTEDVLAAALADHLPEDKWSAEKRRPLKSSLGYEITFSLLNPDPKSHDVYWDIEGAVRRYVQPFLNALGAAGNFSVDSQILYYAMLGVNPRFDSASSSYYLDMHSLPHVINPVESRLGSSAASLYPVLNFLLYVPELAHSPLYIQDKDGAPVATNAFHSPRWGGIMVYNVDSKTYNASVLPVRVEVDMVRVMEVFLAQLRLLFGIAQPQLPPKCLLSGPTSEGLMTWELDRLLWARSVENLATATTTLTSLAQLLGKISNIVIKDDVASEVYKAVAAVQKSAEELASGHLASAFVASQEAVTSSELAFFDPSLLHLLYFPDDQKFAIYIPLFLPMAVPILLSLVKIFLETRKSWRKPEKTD
# UniProt Q99471, whole entry, looked up: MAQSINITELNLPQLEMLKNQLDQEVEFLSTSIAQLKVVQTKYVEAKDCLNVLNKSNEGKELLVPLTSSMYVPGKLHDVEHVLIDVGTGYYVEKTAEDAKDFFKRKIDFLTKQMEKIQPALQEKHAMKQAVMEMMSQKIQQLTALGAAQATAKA
# UniProt P14618, whole entry, looked up: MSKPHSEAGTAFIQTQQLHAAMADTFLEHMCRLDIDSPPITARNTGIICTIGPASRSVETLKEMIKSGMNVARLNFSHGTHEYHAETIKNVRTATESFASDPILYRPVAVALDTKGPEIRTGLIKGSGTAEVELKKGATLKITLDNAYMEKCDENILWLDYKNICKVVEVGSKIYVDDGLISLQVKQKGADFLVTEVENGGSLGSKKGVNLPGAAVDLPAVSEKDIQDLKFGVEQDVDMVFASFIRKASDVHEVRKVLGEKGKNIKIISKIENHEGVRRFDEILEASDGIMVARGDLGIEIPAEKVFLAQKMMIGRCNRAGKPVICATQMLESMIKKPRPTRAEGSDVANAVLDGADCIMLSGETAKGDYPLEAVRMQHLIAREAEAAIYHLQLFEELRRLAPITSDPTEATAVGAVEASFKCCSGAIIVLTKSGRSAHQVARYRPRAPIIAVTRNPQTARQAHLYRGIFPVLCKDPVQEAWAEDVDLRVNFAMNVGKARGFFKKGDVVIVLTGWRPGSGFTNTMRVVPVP
# UniProt Q9GZP4: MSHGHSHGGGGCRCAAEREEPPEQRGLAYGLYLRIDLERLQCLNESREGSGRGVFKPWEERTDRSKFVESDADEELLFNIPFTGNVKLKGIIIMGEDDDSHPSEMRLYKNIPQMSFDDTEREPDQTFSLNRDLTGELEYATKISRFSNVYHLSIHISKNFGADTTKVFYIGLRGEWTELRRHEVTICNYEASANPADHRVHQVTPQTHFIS
# UniProt Q8IV08: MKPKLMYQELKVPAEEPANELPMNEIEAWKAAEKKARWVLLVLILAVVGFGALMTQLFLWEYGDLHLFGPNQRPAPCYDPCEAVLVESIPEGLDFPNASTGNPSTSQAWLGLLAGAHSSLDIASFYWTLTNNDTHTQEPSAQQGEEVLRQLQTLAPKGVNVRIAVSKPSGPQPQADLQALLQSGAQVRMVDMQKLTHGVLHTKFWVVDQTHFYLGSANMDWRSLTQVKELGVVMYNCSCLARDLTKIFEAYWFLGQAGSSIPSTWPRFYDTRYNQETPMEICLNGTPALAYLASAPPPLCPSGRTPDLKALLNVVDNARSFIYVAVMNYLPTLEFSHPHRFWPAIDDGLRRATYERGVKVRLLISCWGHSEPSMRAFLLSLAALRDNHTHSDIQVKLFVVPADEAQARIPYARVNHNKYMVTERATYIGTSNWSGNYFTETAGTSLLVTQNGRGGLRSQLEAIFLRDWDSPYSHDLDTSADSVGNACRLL
# UniProt Q8NDX5: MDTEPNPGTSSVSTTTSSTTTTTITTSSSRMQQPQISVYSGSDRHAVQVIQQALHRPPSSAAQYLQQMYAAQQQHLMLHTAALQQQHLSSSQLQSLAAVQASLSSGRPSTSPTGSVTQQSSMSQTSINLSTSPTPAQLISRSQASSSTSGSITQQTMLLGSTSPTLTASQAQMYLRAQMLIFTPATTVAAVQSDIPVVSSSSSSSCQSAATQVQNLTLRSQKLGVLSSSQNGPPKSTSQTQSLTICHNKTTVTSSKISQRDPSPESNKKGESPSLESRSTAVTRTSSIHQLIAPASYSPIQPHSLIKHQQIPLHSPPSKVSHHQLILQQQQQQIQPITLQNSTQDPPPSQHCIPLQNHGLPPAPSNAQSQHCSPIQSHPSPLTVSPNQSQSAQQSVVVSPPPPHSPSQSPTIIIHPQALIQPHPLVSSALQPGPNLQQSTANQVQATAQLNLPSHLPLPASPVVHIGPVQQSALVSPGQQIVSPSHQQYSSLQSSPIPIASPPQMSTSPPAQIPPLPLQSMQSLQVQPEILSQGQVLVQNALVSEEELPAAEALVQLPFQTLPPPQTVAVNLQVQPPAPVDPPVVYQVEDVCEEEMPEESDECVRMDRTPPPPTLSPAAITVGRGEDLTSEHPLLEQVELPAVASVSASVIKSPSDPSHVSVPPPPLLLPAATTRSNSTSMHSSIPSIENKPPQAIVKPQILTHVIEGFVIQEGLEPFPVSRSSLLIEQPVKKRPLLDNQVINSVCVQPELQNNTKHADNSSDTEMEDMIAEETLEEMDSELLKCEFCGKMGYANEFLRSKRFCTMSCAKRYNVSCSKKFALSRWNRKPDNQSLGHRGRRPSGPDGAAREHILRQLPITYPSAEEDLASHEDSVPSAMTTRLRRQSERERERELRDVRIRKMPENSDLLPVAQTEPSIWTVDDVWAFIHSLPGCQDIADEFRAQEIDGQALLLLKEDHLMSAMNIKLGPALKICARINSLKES
# UniProt Q8TCG2: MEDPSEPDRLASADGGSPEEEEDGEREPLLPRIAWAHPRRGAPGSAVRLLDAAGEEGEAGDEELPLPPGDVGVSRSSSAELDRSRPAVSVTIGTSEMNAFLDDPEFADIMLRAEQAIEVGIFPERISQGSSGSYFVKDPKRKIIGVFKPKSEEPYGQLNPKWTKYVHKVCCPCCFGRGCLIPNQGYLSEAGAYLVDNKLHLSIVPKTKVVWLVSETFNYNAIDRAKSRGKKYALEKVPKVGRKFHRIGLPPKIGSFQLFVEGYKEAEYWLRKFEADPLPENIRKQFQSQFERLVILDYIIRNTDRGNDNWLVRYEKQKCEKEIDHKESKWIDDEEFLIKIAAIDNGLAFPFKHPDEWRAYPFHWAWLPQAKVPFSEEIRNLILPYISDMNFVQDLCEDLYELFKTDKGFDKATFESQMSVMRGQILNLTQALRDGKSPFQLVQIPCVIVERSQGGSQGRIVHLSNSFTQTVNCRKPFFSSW
# UniProt Q9Y237, whole entry, looked up: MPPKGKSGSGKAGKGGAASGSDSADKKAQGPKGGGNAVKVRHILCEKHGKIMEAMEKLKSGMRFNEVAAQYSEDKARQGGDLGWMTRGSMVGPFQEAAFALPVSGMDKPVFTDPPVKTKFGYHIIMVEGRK
# UniProt P42336, whole entry, looked up: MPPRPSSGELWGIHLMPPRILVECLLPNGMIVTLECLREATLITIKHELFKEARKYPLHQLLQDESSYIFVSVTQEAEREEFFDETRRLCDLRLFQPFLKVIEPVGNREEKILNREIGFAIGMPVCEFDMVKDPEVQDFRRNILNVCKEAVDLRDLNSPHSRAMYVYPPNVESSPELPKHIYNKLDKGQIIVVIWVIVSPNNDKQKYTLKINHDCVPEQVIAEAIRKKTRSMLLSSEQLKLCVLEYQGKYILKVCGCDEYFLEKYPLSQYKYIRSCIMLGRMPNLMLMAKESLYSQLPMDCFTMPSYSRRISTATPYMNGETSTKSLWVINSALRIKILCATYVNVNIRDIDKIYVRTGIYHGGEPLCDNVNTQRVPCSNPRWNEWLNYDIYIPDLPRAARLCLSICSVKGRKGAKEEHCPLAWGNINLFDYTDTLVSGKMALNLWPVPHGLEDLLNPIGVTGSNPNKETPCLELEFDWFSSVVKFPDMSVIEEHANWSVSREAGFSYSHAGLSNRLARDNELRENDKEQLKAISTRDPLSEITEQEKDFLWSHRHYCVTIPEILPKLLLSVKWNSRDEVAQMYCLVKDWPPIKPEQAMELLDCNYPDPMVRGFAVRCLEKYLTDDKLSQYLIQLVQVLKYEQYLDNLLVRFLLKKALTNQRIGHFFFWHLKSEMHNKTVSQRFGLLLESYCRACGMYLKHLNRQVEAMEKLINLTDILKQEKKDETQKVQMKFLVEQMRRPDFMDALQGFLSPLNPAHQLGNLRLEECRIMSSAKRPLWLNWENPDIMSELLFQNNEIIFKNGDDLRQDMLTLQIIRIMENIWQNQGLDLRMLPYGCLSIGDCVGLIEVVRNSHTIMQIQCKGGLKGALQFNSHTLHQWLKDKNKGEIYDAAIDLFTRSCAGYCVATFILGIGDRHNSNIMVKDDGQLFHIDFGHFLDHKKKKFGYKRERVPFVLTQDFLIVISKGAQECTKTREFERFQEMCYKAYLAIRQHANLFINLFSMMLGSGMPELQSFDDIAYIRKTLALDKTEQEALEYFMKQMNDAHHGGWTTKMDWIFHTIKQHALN
# UniProt Q8WUB8: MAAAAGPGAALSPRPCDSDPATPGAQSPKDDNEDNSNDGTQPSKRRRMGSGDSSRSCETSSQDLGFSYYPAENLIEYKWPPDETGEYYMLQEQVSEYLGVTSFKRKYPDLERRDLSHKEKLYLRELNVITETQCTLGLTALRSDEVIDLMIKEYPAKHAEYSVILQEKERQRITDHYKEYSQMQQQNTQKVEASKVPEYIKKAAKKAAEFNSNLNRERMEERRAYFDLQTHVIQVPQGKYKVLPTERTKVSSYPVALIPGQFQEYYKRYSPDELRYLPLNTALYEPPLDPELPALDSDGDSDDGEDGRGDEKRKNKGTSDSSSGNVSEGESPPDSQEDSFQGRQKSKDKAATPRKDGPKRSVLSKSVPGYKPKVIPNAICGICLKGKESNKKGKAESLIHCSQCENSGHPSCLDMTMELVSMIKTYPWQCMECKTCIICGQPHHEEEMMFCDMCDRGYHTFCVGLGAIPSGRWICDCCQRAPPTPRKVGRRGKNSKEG
# UniProt Q9NXJ5: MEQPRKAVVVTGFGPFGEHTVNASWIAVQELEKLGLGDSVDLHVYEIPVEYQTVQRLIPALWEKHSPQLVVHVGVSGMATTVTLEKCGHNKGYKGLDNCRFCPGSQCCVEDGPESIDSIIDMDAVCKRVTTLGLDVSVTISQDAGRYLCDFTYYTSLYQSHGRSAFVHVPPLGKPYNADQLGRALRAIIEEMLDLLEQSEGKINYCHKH
# UniProt Q8TCD6: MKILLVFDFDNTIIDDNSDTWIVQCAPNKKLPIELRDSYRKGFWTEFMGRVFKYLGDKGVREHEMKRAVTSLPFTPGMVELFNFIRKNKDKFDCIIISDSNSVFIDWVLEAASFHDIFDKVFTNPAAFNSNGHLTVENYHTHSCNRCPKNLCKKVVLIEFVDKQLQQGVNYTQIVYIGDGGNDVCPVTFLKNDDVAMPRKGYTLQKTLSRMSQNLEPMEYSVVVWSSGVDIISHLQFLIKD
# UniProt Q14442: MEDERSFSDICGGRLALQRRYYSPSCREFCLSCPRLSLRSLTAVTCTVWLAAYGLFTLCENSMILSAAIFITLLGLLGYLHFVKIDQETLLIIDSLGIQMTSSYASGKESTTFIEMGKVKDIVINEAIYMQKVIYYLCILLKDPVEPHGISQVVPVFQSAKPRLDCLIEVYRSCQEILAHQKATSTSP
# UniProt Q13492: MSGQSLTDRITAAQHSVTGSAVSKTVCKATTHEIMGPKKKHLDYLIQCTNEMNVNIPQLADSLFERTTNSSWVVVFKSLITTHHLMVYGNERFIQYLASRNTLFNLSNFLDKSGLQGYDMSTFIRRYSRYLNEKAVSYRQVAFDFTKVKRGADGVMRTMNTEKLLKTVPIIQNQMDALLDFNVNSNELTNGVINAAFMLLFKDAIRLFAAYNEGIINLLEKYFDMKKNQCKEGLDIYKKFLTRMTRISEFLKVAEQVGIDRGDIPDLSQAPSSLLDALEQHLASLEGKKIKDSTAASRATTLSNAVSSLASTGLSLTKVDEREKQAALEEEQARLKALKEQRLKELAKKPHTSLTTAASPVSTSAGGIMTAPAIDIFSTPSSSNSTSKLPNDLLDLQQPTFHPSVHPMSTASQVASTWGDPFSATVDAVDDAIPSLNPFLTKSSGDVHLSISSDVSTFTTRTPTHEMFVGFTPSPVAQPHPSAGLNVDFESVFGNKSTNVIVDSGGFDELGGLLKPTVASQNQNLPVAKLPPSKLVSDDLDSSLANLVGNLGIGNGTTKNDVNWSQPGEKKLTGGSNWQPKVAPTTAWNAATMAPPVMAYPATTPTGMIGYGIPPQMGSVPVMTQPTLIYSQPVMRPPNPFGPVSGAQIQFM
# The other results are listed elsewhere or left out.
# Tests used:
# Assay in all cases: log2 fold change, soluble protein after heating vs DMSO (PISA); higher = thermal stabilisation; K562 cells, 10 uM, 30 min; active = over 0.2 and 3.5 SD of the protein, either way, in both replicates (recomputed)
# bafetinib = compound: Cc1ccc(NC(=O)c2ccc(CN3CC[C@H](N(C)C)C3)c(C(F)(F)F)c2)cc1Nc1nccc(-c2cncnc2)n1 [bafetinib]
# Method in brief: (§1)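 Aliquots of K562 cells (2×10^6 cells/mL) treated with 10 μM compound for 30 min were heated for 3 min over 48°C-58°C. After pooling and extraction in PBS with 0.5% NP-40 at 4°C, soluble protein from a 21,000xg, 90 min spin was quantified by TMTpro 16plex LC-MS/MS with channel sums equalised. Thermal stability is expressed against control samples, from duplicates, as a log2 fold change.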
# [1] = compound: Cc1cccc(CC(=O)N2CCc3c2ccc(-c2cn(C)c4ncnc(N)c24)c3F)n1
# Method in brief: as §1
# nilotinib = compound: Cc1cn(-c2cc(NC(=O)c3ccc(C)c(Nc4nccc(-c5cccnc5)n4)c3)cc(C(F)(F)F)c2)cn1 [nilotinib]
# Method in brief: as §1
# [2] = compound: Cc1nc(Nc2n[nH]c3c2CN(C(=O)N[C@H](CN(C)C)c2ccccc2)C3(C)C)c2sccc2n1
# Method in brief: as §1
# dasatinib = compound: Cc1nc(Nc2ncc(C(=O)Nc3c(C)cccc3Cl)s2)cc(N2CCN(CCO)CC2)n1 [dasatinib]
# Method in brief: as §1
# [3] = compound: Cc1ncc(-c2ccnc(Nc3ccc(S(C)(=O)=O)cc3)n2)n1C(C)C
# Method in brief: as §1
# [4] = compound: Cn1cc(-c2ccc3c(c2)CCN3C(=O)Cc2cccc(C(F)(F)F)c2)c2c(N)ncnc21
# Method in brief: as §1
# [5] = compound: Cn1cc(-c2ccc3nnc(C(F)(F)c4ccc5ncccc5c4)n3n2)cn1
# Method in brief: as §1
# tipifarnib = compound: Cn1cncc1[C@@](N)(c1ccc(Cl)cc1)c1ccc2c(c1)c(-c1cccc(Cl)c1)cc(=O)n2C [tipifarnib]
# Method in brief: as §1
# mubritinib = compound: FC(F)(F)c1ccc(/C=C/c2nc(COc3ccc(CCCCn4ccnn4)cc3)co2)cc1 [mubritinib]
# Method in brief: as §1
Target,log2 fold change (bafetinib),log2 fold change [1],log2 fold change (nilotinib),log2 fold change [2],log2 fold change (dasatinib),log2 fold change [3],log2 fold change [4],log2 fold change [5],log2 fold change (tipifarnib),log2 fold change (mubritinib)
PIN1 (UniProt Q13526),inactive: -0.046,inactive: 0.033,inactive: 0.017,inactive: -0.072,inactive: -0.023,inactive: -0.003,inactive: 0.018,inactive: -0.009,inactive: -0.055,inactive: 0.05
PGM3 isoform 4 (UniProt O95394),inactive: 0.056,inactive: 0.153,inactive: -0.022,inactive: 0.021,inactive: -0.145,inactive: -0.003,inactive: 0.106,inactive: 0.02,inactive: -0.079,active: 0.293
PFKFB4 (UniProt Q16877),inactive: -0.151,inactive: 0.082,inactive: -0.097,inactive: 0.024,inactive: -0.084,inactive: -0.02,inactive: 0.005,inactive: -0.002,inactive: -0.032,inactive: -0.014
PIGS (UniProt Q96S52),inactive: -0.076,inactive: -0.016,inactive: -0.054,inactive: 0.046,inactive: -0.034,inactive: -0.053,inactive: -0.011,inactive: 0,inactive: 0.026,inactive: -0.012
PHF6 (UniProt Q8IWS0),inactive: 0.219,inactive: -0.002,inactive: 0.016,inactive: -0.028,inactive: 0.154,inactive: -0.048,inactive: -0.223,inactive: -0.181,inactive: 0.103,inactive: -0.139
PFDN5 (UniProt Q99471),inactive: 0.014,inactive: 0.137,inactive: 0.022,inactive: -0.003,inactive: -0.026,inactive: -0.011,inactive: 0.062,inactive: 0.065,inactive: 0.014,inactive: 0
PGAM1 (UniProt P18669),inactive: -0.005,inactive: -0.015,inactive: 0.056,inactive: -0.001,inactive: 0.009,inactive: -0.001,inactive: 0,inactive: -0.06,inactive: -0.016,inactive: 0.002
PIP4P2 (UniProt Q8N4L2),inactive: -0.083,inactive: -0.111,inactive: 0.013,inactive: -0.003,inactive: 0.055,inactive: -0.026,inactive: -0.03,inactive: 0.014,inactive: 0.024,inactive: 0.005
PLEC (UniProt Q15149),inactive: 0.108,inactive: -0.005,inactive: 0.036,inactive: 0.106,inactive: -0.004,inactive: -0.058,inactive: -0.089,inactive: 0.026,inactive: 0.026,inactive: -0.05
PKM (UniProt P14618),inactive: -0.023,inactive: -0.012,inactive: -0.011,inactive: -0.004,inactive: 0.024,inactive: -0.009,inactive: 0.015,inactive: 0.006,inactive: 0.005,inactive: 0.035
PKP3 isoform 2 (UniProt Q9Y446),inactive: 0.063,inactive: 0.159,,,inactive: -0.17,,inactive: 0.096,inactive: -0.102,inactive: 0.011,inactive: -0.07
PITHD1 (UniProt Q9GZP4),inactive: -0.199,inactive: -0.094,inactive: 0.084,inactive: 0.003,inactive: 0.005,inactive: -0.01,inactive: 0.036,inactive: -0.021,inactive: 0.081,inactive: -0.004
PLD3 (UniProt Q8IV08),active: -0.308,inactive: -0.007,inactive: -0.043,inactive: 0.064,inactive: -0.024,inactive: -0.03,inactive: -0.007,inactive: 0.013,inactive: -0.01,inactive: 0.035
PHLDB1 isoform 2 (UniProt Q86UU1),inactive: -0.112,inactive: 0.117,inactive: 0.136,inactive: -0.265,inactive: -0.073,inactive: -0.128,inactive: 0.061,inactive: 0.016,inactive: 0.057,inactive: 0.14
PGD (UniProt K7EM49),inactive: -0.238,inactive: -0.543,,,,,,inactive: 0.099,inactive: 0.092,
PIGW (UniProt Q7Z7B1),inactive: -0.053,inactive: -0.027,inactive: -0.024,inactive: -0.059,inactive: 0.027,inactive: 0.03,,,inactive: -0.039,inactive: 0.053
PHC3 isoform 7 (UniProt Q8NDX5),inactive: 0.222,,inactive: -0.187,inactive: 0.01,,inactive: 0,inactive: 0.018,,inactive: -0.016,inactive: 0.191

# A second format for some results above:
Target	log2 fold change (bafetinib)	log2 fold change [1]	log2 fold change (nilotinib)	log2 fold change [2]	log2 fold change (dasatinib)	log2 fold change [3]	log2 fold change [4]	log2 fold change [5]	log2 fold change (tipifarnib)	log2 fold change (mubritinib)
PFKFB4 (UniProt Q16877)	inactive: -0.151	inactive: 0.082	inactive: -0.097	inactive: 0.024	inactive: -0.084	inactive: -0.02	inactive: 0.005	inactive: -0.002	inactive: -0.032	inactive: -0.014
PIGS (UniProt Q96S52)	inactive: -0.076	inactive: -0.016	inactive: -0.054	inactive: 0.046	inactive: -0.034	inactive: -0.053	inactive: -0.011	inactive: 0	inactive: 0.026	inactive: -0.012

# Carrying on.

Target,log2 fold change (bafetinib),log2 fold change [1],log2 fold change (nilotinib),log2 fold change [2],log2 fold change (dasatinib),log2 fold change [3],log2 fold change [4],log2 fold change [5],log2 fold change (tipifarnib),log2 fold change (mubritinib)
PLCL1 (UniProt Q15111),inactive: -0.045,inactive: 0.039,inactive: -0.06,inactive: -0.197,,inactive: -0.324,inactive: -0.116,inactive: 0.028,,inactive: -0.018
PFN1 (UniProt I3L3D5),inactive: -0.39,inactive: -0.436,,,,,inactive: -0.158,inactive: -0.001,inactive: 0.13,inactive: -0.031
PHF19 isoform 2 (UniProt Q5T6S3),inactive: 0.351,inactive: -0.035,inactive: -0.009,inactive: 0.031,inactive: -0.066,inactive: -0.012,,inactive: -0.063,inactive: -0.214,inactive: 0.012
PIGQ (UniProt Q9BRB3),inactive: -0.086,inactive: 0.021,inactive: 0.068,inactive: -0.031,inactive: -0.164,inactive: -0.014,inactive: 0.13,inactive: 0.073,,inactive: -0.054
PI4K2B (UniProt Q8TCG2),inactive: -0.084,inactive: 0,inactive: 0.124,inactive: -0.052,inactive: -0.101,inactive: -0.167,inactive: 0.11,inactive: 0.146,,inactive: 0.053
PIN4 isoform 2 (UniProt Q9Y237),inactive: 0.004,inactive: -0.019,inactive: -0.025,inactive: -0.028,inactive: -0.01,inactive: 0.006,inactive: 0.01,inactive: 0.042,inactive: -0.022,inactive: 0.016
PFKFB1 (UniProt P16118),inactive: -0.081,inactive: 0.081,inactive: -0.026,inactive: -0.13,,inactive: -0.057,,,inactive: 0.031,inactive: 0.079
PIK3CA (UniProt P42336),inactive: -0.072,,inactive: -0.325,inactive: 0.453,,inactive: -0.033,inactive: -0.125,inactive: -0.179,,inactive: 0.126
PHF10 (UniProt Q8WUB8),inactive: 0.04,inactive: 0.023,,,inactive: 0.001,,inactive: 0.181,inactive: -0.096,inactive: -0.007,
PGPEP1 (UniProt Q9NXJ5),inactive: 0.028,,,,inactive: -0.602,,inactive: 0.071,inactive: 0.012,inactive: -0.101,inactive: 0.122
PICALM (UniProt H0YEY8),inactive: -0.035,inactive: -0.114,inactive: -0.044,inactive: 0.019,inactive: -0.111,inactive: -0.027,inactive: 0.058,inactive: -0.109,inactive: -0.239,inactive: 0.011
PHOSPHO2 (UniProt Q8TCD6),inactive: 0.11,,,,inactive: -0.127,,inactive: 0.166,inactive: 0.247,,inactive: -0.034
PIP (UniProt P12273),inactive: 0.704,inactive: -0.117,inactive: -0.121,inactive: 0.102,inactive: -0.075,inactive: 0.5,inactive: 0.516,inactive: 0.234,inactive: -0.319,inactive: -0.569
PIGH (UniProt Q14442),inactive: -0.037,inactive: -0.01,,,inactive: -0.053,,inactive: 0.099,inactive: 0.009,inactive: 0.056,inactive: 0.04
PFKM (UniProt F8VTQ3),inactive: -0.041,inactive: -0.045,,,,,,,inactive: 0.134,
PICALM (UniProt Q13492),inactive: -0.052,inactive: 0.013,inactive: -0.046,inactive: -0.015,inactive: -0.033,inactive: -0.016,inactive: 0.053,inactive: -0.037,inactive: -0.02,inactive: 0.032
